Results on four sequences are retold here after article PMC6987093.

The chains behind the UniProt entries cited, without tags or fusion partners.
UniProt P09874, whole entry: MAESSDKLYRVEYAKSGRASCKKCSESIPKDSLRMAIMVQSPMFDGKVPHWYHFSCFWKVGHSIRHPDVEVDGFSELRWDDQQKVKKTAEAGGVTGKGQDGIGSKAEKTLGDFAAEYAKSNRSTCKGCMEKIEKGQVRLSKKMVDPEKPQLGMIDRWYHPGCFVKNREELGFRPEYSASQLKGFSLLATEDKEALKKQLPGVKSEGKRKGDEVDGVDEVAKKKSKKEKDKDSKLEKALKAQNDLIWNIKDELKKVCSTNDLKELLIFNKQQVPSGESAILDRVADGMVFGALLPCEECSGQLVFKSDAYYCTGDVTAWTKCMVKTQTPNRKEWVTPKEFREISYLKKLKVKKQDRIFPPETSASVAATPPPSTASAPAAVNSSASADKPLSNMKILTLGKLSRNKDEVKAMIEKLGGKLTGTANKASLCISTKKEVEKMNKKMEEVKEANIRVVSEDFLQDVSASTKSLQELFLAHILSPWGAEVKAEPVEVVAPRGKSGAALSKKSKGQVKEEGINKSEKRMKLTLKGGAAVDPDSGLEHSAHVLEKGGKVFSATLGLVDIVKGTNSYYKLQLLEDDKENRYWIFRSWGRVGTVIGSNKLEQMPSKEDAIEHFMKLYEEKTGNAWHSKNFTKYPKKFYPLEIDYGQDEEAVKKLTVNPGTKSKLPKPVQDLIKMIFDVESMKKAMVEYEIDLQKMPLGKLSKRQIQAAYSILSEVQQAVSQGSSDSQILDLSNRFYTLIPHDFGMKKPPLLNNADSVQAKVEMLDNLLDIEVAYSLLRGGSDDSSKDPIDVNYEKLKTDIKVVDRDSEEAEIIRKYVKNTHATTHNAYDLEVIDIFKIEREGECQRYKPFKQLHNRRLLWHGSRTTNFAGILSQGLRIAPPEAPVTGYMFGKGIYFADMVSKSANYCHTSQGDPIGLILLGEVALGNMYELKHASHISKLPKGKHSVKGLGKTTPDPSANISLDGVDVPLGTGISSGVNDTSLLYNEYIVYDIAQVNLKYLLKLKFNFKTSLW

For at least one entry, the source does not settle the construct or the ends of the probe. For some of these results: A weaker result is weaker than the reference pair of the same experiment.

For series [1], the target named is PARP1 (UniProt P09874). The experiment in a line: DNase I footprinting. The following applies: label: FAM (EMSA probe), probe letters rebuilt from the primers and the genome, part of a longer molecule.
The target in series [2] is PARP1 (UniProt P09874). The experiment in a line: EMSA. The following applies: 2-10 ug PARP1, 40-fold cold probe competes; EMSA: 0, 2, 5 or 10 ug PARP1 pre-incubated 30 min with 50 ng DNA probe (Thermo EMSA kit), nondenaturing PAGE; label: FAM (EMSA probe); probe letters rebuilt from the primers and the genome; part of a longer molecule.
In series [3] the target is PARP1 (UniProt P09874). The experiment in a line: pull-down (FREP). The following applies: EcoRI and BamHI release, much less than FoxO1-L-B and FoxO1-R-B; label: 5' biotin.

As for “TAGTCCGGGCTCCTGTTTCTTCATAATCTATTTATCACAACAGCTTCTTGCTGATACTAGGCATGGGTGGGGTGGGGAGCGTGAGCCGGATGGATTGGGGACGGGCGGGGACTGGTTCCCACCCTGGTCTTGTGGTCTCTTCACGTTTACTATCAAATTTGGACAGTCTGGGCCTCCTCTGACAGCCGCTAGGGGACCTCAGTAACTCAGATGATGAGCTCAAAGGCAGGCCCCCAAAGTACAGCTGTTGCTTCCCCCCACCTTTCCAATTACACTCTGCAGAAGCAGCCCCCGATCCAGACAGCCGCACCCTAAAA (double strand) [FoxO1-R]”, the binding result is “binds” in series [1] (30 ug PARP1, -1805 to -1828 protected) and “binds” in series [2].

As for “AGCCTGTGCCATTCGGTCTAGCCAGAGGCGCGTCACCCAGCCGGCAGCCCCCAGCCGGATTCACTGTATTCTTGACCTTTTTTAAAATGCTAGAAATGAGGAACAGGGGCTCCGGCGCGGGGAGGAGATTATCTGGCCTCCCTGAACACACGAATCCAAAGGCACCCGCGACCGCATGCCCTCCGTGGGAACCTCTTCCCCTGGGCGGGAATCTCCCGCTCCGTCCACTAAGTCCAGGGCCGGCAGCGAAGGGCTCAGGAGCGCAGTTAGAGAGAACCA (double strand) [FoxO1-L]”, the binding result in series [1] (30 ug PARP1, -813 to -826 protected) is “binds”; in series [2] it was “binds”.

As for “AGGTGGGAAGATAATGGCCCTTGTGTCTCAAGCAGAAGAAACAGTTTTCCAGTTTTGTTTTGTTATGCTTTTGCTTTTTTAGGAAGAATATGGAAGGCATTTCCTTTTAGAAAGATGGGACCACTTAGGATGGAAGATGGACAGTAGGGTTTTAAATATCTTGTCCAAAAGGACAGCTTCCAACTCTTGTTTTTTAATCCCTTTCTTTCTTACAAGTAATTCTGCAATGGAAAAAGTGGCATCTAGAGAAAATTAGTCAGTTGGACAAGAGGTTGT (double strand) [FoxO1-M]”, the binding result in series [1] (30 ug PARP1, less protection than L and R) is reported as “binds more weakly”; in series [2], “binds”.

On to “AATGATACGGCGACCACCGAGGATCCAGGGCTGTAGATTCCGGCCTGAAGCCTGGGAATTCTCGTATGCCGTCTTCTGCTTG (double strand) [NS-biotin]”, for which the binding result in series [3] was “binds more weakly”.
